According to the supplement of paper PMC4604168 (melanoma cell lines):
The other results are listed elsewhere or left out. Repeats are few or missing, and single values can be far off.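 Imaging used 1,536-well plates; nuclei positive for cleaved PARP by antibody were divided by total DNA-stained nuclei to yield the apoptosis fraction. Doses for screening kept most cells viable, and cell lines differ markedly in resting and induced cleaved-PARP levels.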

Tests used:
Test in all cases: cleaved PARP positive nuclei fraction relative to DMSO control; melanoma cells; higher = more apoptosis
Conditions in all cases: library dose: low library concentration; 72 h
MZ2-MEL = tested on: MZ2-MEL
MeWo = tested on: MeWo
RPMI7951 = tested on: RPMI7951
RVH-421 = tested on: RVH-421
SkMel28 = tested on: SkMel28
SkMel30 = tested on: SkMel30
SkMel5 = tested on: SkMel5
UACC257 = tested on: UACC257
UACC62 = tested on: UACC62

| SMILES | cleaved PARP positive nuclei fraction (MZ2-MEL) | cleaved PARP positive nuclei fraction (MeWo) | cleaved PARP positive nuclei fraction (RPMI7951) | cleaved PARP positive nuclei fraction (RVH-421) | cleaved PARP positive nuclei fraction (SkMel28) | cleaved PARP positive nuclei fraction (SkMel30) | cleaved PARP positive nuclei fraction (SkMel5) | cleaved PARP positive nuclei fraction (UACC257) | cleaved PARP positive nuclei fraction (UACC62) |
| --- | --- | --- | --- | --- | --- | --- | --- | --- | --- |
| C[As](C)SC[C@H](NC(=O)CC[C@H](N)C(=O)O)C(=O)NCC(=O)O [Darinaparsin] + COc1cc2ncnc(Nc3ccc(Oc4ccccc4)cc3)c2cc1OC [SrcI1] (first compound 0.4 µM, partner dose 2 µM) | 86.1% | 28.1% | 109% | 143% | 193% | 178% | 76.7% | 171% | 64.6% |
| C[As](C)SC[C@H](NC(=O)CC[C@H](N)C(=O)O)C(=O)NCC(=O)O [Darinaparsin] + COC(=O)c1sccc1S(=O)(=O)Nc1ccc(Nc2ccccc2)cc1OC [GSK0660] (first compound 0.4 µM, partner dose 1 µM) | 101% | 120% | 132% | 25.9% | 204% | 38.6% | 35.6% | 176% | 84.2% |
| CO[C@@H]1[C@H](N(C)C(=O)c2ccccc2)C[C@H]2O[C@]1(C)n1c3ccccc3c3c4c(c5c6ccccc6n2c5c31)C(=O)NC4 [Midostaurin] + Cc1cc(SCc2sc(-c3ccc(C(F)(F)F)c(F)c3)nc2C)ccc1OCC(=O)O [GW0742] (first compound 0.08 µM, partner dose 2 µM) | 66.3% | 63% | 200% | 120% | 253% | 101% | 97.5% | 104% | 157% |
| COC(=O)c1sccc1S(=O)(=O)Nc1ccc(Nc2ccccc2)cc1OC + O=C(Oc1ccc([N+](=O)[O-])cc1)N1CCC(C(O)(c2ccc3c(c2)OCO3)c2ccc3c(c2)OCO3)CC1 [JZL184] (first compound 1 µM, partner dose 1 µM) | 78.7% | 77.2% | 40.6% | 57.8% | 112% | 52.2% | 113% | 62.8% | 92% |
| O=C1NC(=O)/C(=C/c2ccc(-c3ccc(F)cc3O)o2)S1 + O=C(Oc1ccc([N+](=O)[O-])cc1)N1CCC(C(O)(c2ccc3c(c2)OCO3)c2ccc3c(c2)OCO3)CC1 [JZL184] (first compound 1 µM, partner dose 1 µM) | 73.9% | 118% | 60.7% | 78.1% | 63.1% | 154% | 59.2% | 239% | 141% |
| C[As](C)SC[C@H](NC(=O)CC[C@H](N)C(=O)O)C(=O)NCC(=O)O [Darinaparsin] + Cc1cc(SCc2sc(-c3ccc(C(F)(F)F)c(F)c3)nc2C)ccc1OCC(=O)O [GW0742] (first compound 0.4 µM, partner dose 2 µM) | 224% | 57% | 39.2% | 90.3% | 144% | 287% | 82.6% | 46.4% | 143% |
| COc1cc2c(Oc3ccc4[nH]c(C)cc4c3F)ncnc2cc1OCCCN1CCCC1 [cediranib] + C/C(O)=C(\C#N)C(=O)Nc1cc(Br)ccc1Br [LFM-A13] (first compound 0.4 µM, partner dose 2 µM) | 118% | 51.5% | 133% | 53.8% | 100% | 145% | 162% | 94% | 106% |
| Cc1cc(SCc2sc(-c3ccc(C(F)(F)F)c(F)c3)nc2C)ccc1OCC(=O)O + COc1cc(N2CCC(N3CCN(C)CC3)CC2)ccc1Nc1ncc(Cl)c(Nc2ccccc2S(=O)(=O)C(C)C)n1 [NVP-TAE684] (first compound 2 µM, partner dose 0.08 µM) | 118% | 104% | 231% | 20.8% | 53.7% | 73.7% | 57.9% | 117% | 125% |
| Cn1cncc1[C@@](N)(c1ccc(Cl)cc1)c1ccc2c(c1)c(-c1cccc(Cl)c1)cc(=O)n2C [tipifarnib] + Cc1cc(SCc2sc(-c3ccc(C(F)(F)F)c(F)c3)nc2C)ccc1OCC(=O)O [GW0742] (first compound 0.01 µM, partner dose 2 µM) | 138% | 43.3% | 135% | 176% | 139% | 24.6% | 35.9% | 205% | 596% |
| NC(=O)Nc1cc(-c2cccc(F)c2)sc1C(=O)N[C@H]1CCCNC1 + C/C(O)=C(\C#N)C(=O)Nc1cc(Br)ccc1Br [LFM-A13] (first compound 0.02 µM, partner dose 2 µM) | 71.8% | 170% | 21.9% | 34.7% | 138% | 31.6% | 69.2% | 121% | 24.5% |
| Cn1c(Nc2ccc(C(F)(F)F)cc2)nc2cc(Oc3ccnc(-c4ncc(C(F)(F)F)[nH]4)c3)ccc21 + Cc1cc(SCc2sc(-c3ccc(C(F)(F)F)c(F)c3)nc2C)ccc1OCC(=O)O [GW0742] (first compound 0.08 µM, partner dose 2 µM) | 350% | 396% | 74.6% | 231% | 97.3% | 92.1% | 3850% | 67.7% | 475% |
| c1cc(-c2cnn3cc(-c4ccc(OCCN5CCCCC5)cc4)cnc23)ccn1 [Dorsomorphin] + O=C(Oc1ccc([N+](=O)[O-])cc1)N1CCC(C(O)(c2ccc3c(c2)OCO3)c2ccc3c(c2)OCO3)CC1 [JZL184] (first compound 0.4 µM, partner dose 1 µM) | 147% | 109% | 87% | 85.7% | 101% | 14.7% | 139% | 85.6% | 50.7% |
| Cc1cc(SCc2sc(-c3ccc(C(F)(F)F)c(F)c3)nc2C)ccc1OCC(=O)O + O=C1NC(=O)/C(=C/c2ccc(-c3ccc(F)cc3O)o2)S1 [AS252424] (first compound 2 µM, partner dose 1 µM) | 56.4% | 114% | 79.9% | 119% | 85.2% | 54.4% | 186% | 282% | 173% |
| Oc1cc(-c2nc(-c3ccccc3)[nH]c2-c2ccncc2)ccc1Cl + O=C(Oc1ccc([N+](=O)[O-])cc1)N1CCC(C(O)(c2ccc3c(c2)OCO3)c2ccc3c(c2)OCO3)CC1 [JZL184] (first compound 0.2 µM, partner dose 1 µM) | 126% | 29.1% | 209% | 87.9% | 112% | 372% | 117% | 92.2% | 258% |
| C[C@]12O[C@H](C[C@]1(O)CO)n1c3ccccc3c3c4c(c5c6ccccc6n2c5c31)CNC4=O [Lestaurtinib] + Cn1cncc1[C@@](N)(c1ccc(Cl)cc1)c1ccc2c(c1)c(-c1cccc(Cl)c1)cc(=O)n2C [tipifarnib] (first compound 0.004 µM, partner dose 0.01 µM) | 91.9% | 115% | 166% | 244% | 69.4% | 75.2% | 127% | 209% | 382% |
| NCC(=O)Nc1ccc(-n2nc(C(F)(F)F)cc2-c2ccc3c(ccc4ccccc43)c2)cc1 + C/C(O)=C(\C#N)C(=O)Nc1cc(Br)ccc1Br [LFM-A13] (first compound 1 µM, partner dose 2 µM) | 168% | 266% | 75.8% | 72.2% | 191% | 98.9% | 72.3% | 135% | 277% |
| C[C@]12O[C@H](C[C@]1(O)CO)n1c3ccccc3c3c4c(c5c6ccccc6n2c5c31)CNC4=O [Lestaurtinib] + Cc1cc([N+](=O)[O-])ccc1NS(=O)(=O)c1cc(Cl)ccc1Cl [FH535] (first compound 0.004 µM, partner dose 1 µM) | 196% | 170% | 134% | 165% | 172% | 77.9% | 83.1% | 86.5% | 202% |
| C[C@]12O[C@H](C[C@]1(O)CO)n1c3ccccc3c3c4c(c5c6ccccc6n2c5c31)CNC4=O [Lestaurtinib] + C[C@@H]1CCN(C(=O)CC#N)C[C@@H]1N(C)c1ncnc2[nH]ccc12 [CP690550] (first compound 0.004 µM, partner dose 1 µM) | 107% | 109% | 110% | 87.7% | 108% | 81.9% | 138% | 144% | 85.4% |
| C[C@]12O[C@H](C[C@]1(O)CO)n1c3ccccc3c3c4c(c5c6ccccc6n2c5c31)CNC4=O [Lestaurtinib] + O=C(Nc1cccc(Cl)c1)Nc1ncc(CCNc2ncnc3ccsc23)s1 [SNS314] (first compound 0.004 µM, partner dose 0.0008 µM) | 74.5% | 67.2% | 38.4% | 92.4% | 235% | 57.2% | 125% | 95.1% | 47.6% |
| C[C@]12O[C@H](C[C@]1(O)CO)n1c3ccccc3c3c4c(c5c6ccccc6n2c5c31)CNC4=O [Lestaurtinib] + COc1cc2ncnc(Nc3ccc(Oc4ccccc4)cc3)c2cc1OC [SrcI1] (first compound 0.004 µM, partner dose 2 µM) | 111% | 119% | 79.6% | 47.4% | 74.3% | 97.3% | 143% | 141% | 178% |
| Oc1nc(-c2ccc(C(F)(F)F)cc2)nc2c1CSCC2 + O=C(Oc1ccc([N+](=O)[O-])cc1)N1CCC(C(O)(c2ccc3c(c2)OCO3)c2ccc3c(c2)OCO3)CC1 [JZL184] (first compound 2 µM, partner dose 1 µM) | 114% | 144% | 87.6% | 43.8% | 65.4% | 131% | 32% | 151% | 48.6% |
| Cc1cc(SCc2sc(-c3ccc(C(F)(F)F)c(F)c3)nc2C)ccc1OCC(=O)O + O=C(O)C(=O)Nc1sc2c(c1C(=O)O)CCNC2 [TCS401] (first compound 2 µM, partner dose 1.66667 µM) | 82.2% | 230% | 94.9% | 58.4% | 83.9% | 101% | 61.5% | 32.2% | 159% |
| C[C@]12O[C@H](C[C@]1(O)CO)n1c3ccccc3c3c4c(c5c6ccccc6n2c5c31)CNC4=O [Lestaurtinib] + O=C1NC(=O)/C(=C/c2ccc(-c3ccc(F)cc3O)o2)S1 [AS252424] (first compound 0.004 µM, partner dose 1 µM) | 92.5% | 158% | 127% | 100% | 111% | 220% | 130% | 251% | 69.8% |

Limited to cleaved PARP positive nuclei fraction (MeWo), cleaved PARP positive nuclei fraction (UACC62) and cleaved PARP positive nuclei fraction (SkMel5) (two entries from above):
SMILES	cleaved PARP positive nuclei fraction (MeWo)	cleaved PARP positive nuclei fraction (UACC62)	cleaved PARP positive nuclei fraction (SkMel5)
C[As](C)SC[C@H](NC(=O)CC[C@H](N)C(=O)O)C(=O)NCC(=O)O [Darinaparsin] + COC(=O)c1sccc1S(=O)(=O)Nc1ccc(Nc2ccccc2)cc1OC [GSK0660] (first compound 0.4 µM, partner dose 1 µM)	120%	84.2%	35.6%
C[As](C)SC[C@H](NC(=O)CC[C@H](N)C(=O)O)C(=O)NCC(=O)O [Darinaparsin] + Cc1cc(SCc2sc(-c3ccc(C(F)(F)F)c(F)c3)nc2C)ccc1OCC(=O)O [GW0742] (first compound 0.4 µM, partner dose 2 µM)	57%	143%	82.6%
